[ ]: non-standard residue; d: D form. The star is where a group is joined. Cbz = O=C(OCc1ccccc1)*; NHNH2 = NN*
Test: general procedure: solution-phase peptide synthesis; DCC/HONB; DCC/HOBT
Details: coupling step

Substance | step yield [%]
Z-Tyr-(D)-Ala-Gly-Phe-NH-NH-CO-OCH2 -CH3 | 93
Z-Tyr-(D)-Ala-Gly-Phe-NH-NH-BOC | 67
Z-MeTyr(Bu^t)-(D)-Ala-Gly-MePhe-NH-NH-CO-CH2 -CH3 | 86
Z-Tyr-(D)-Leu-Gly-Phe-NH-NH-CO-CH3 | 74
Z-Tyr-(D)-Ala-Gly-Phe-NH-NH-CO-CH2 -CH2 -CH3 | 50
Cbz-Y[dL]GF-OMe | 89
BOC-Tyr-(D)-Met(O)-Gly-Phe-NH-NH-CO-CH2 -CH3 | 72
Z-Tyr-(D)-Ala-Gly-Phe-NH-NH-CO-CH2 -CH2 -NH-Z. | 56
Z-Tyr-(D)-Ala-Gly-MePhe-OCH3 | 56

Same assay, conditions: late stage modification step

Substance | step yield [%]
H-Tyr-(D)-Leu-Gly-Phe-NH-NH-CO-CH3 | 50
H-Tyr-(D)-Ala-Gly-Phe-NH-NH-CO-CH2 -CH(CH3)2 | 62
Z-Tyr-(D)-Ala-Gly-MePhe-NH-NH-CO-CH2 -CH3 | 87
H-Tyr-(D)-Ala-Gly-Phe-NH-NH-CO-(CH2)3 -CH3 | 56
Z-Tyr-(D)-Ala-Gly-MePhe-NH-NH-CO-CH2 -CH(CH3)2 | 82
H-Tyr-(D)-Ala-Gly-Phe-NH-NH-CO-OCH2 -CH3 | 53
H-Tyr-(D)-Ala-Gly-Phe-NH-NH-CO-CH2 -CH2 -NH2 | 61
Z-Tyr-(D)-Ala-Gly-Phe-NH-NH2 | 96
H-Tyr-(D)-Ala-Gly-Phe-NH-NH-CO-(CH2)2 -Cl | 60
Z-Tyr-(D)-Ala-Gly-Phe-NH-NH-CO-CH2 -CH(CH3)2 | 53
H-Tyr-(D)-Ala-Gly-Phe-NH-NH-CO-CH2 CH2 CH3 | 44
Z-Tyr-(D)-Ala-Gly-Phe-NH-NH-CO-(CH2)2 -Cl | 59
Z-Tyr-(D)-Ala-Gly-Phe-NH-NH-CO-CH2 -CH2 -OH | 53
H-Tyr-(D)-Ala-Gly-Phe-NH-NH-CO-CH2 -CH3 | 52
H-Y[dL]GF-NHNH2 | 60
Cbz-Y[dL]GF-NHNH2 | 80
H-Tyr-(D)-Ala-Gly-MePhe-NH-NH2 | 52
Z-Tyr-(D)-Ala-Gly-Phe-NH-NH-CO-(CH2)3 -CH3 | 70
Z-Tyr-(D)-Ala-Gly-MePhe-NH-NH-CO-CH2 -CH2 -O-CH2 -CH3 | 73
Z-Tyr-(D)-Ala-Gly-MePhe-NH-NH-CO-CH2 -CH2 -CH2 -CH3 | 82
H-Tyr-(D)-Ala-Gly-Phe-NH-NH-CO-CH2 -CH2 -OH | 40
Z-Tyr-(D)-Ala-Gly-MePhe-NH-NH-CO-CH2 -CH2 -CH3 | 83
Z-Tyr-(D)-Ala-Gly-MePhe-NH-NH2 | 82
Z-Tyr-(D)-Ala-Gly-MePhe-NH-NH-CO-CH(OH)-CH3 | 81
Z-Tyr-(D)-Ala-Gly-MePhe-NH-NH-CO-O-CH2 -CH3 | 73
H-Tyr-(D)-Ala-Gly-Phe-NH-NH2 | 38
Z-Tyr-(D)-Ala-Gly-MePhe-NH-NH-CO-CH2 -CH2 -Cl | 85
Z-Tyr-(D)-Ala-Gly-Phe-NH-NH-CO-CH2 -CH3 | 65
Z-Tyr-(D)-Ala-Gly-MePhe-NH-NH-CO-CH2 -CH2 -CO-CH3 | 70

From US4277394 (dated 1981)
